Experimental findings from the supplement of paper PMC12067093, “Discovery and optimisation of a covalent ligand for TRIM25 and its application to targeted protein ubiquitination” (Chemical Science, 2025) are described below.

The chains behind the UniProt entries cited, without tags or fusion partners. Where a name states a change or a piece, a line headed by the entry shows the natural chain unless it says otherwise.
UniProt P14543: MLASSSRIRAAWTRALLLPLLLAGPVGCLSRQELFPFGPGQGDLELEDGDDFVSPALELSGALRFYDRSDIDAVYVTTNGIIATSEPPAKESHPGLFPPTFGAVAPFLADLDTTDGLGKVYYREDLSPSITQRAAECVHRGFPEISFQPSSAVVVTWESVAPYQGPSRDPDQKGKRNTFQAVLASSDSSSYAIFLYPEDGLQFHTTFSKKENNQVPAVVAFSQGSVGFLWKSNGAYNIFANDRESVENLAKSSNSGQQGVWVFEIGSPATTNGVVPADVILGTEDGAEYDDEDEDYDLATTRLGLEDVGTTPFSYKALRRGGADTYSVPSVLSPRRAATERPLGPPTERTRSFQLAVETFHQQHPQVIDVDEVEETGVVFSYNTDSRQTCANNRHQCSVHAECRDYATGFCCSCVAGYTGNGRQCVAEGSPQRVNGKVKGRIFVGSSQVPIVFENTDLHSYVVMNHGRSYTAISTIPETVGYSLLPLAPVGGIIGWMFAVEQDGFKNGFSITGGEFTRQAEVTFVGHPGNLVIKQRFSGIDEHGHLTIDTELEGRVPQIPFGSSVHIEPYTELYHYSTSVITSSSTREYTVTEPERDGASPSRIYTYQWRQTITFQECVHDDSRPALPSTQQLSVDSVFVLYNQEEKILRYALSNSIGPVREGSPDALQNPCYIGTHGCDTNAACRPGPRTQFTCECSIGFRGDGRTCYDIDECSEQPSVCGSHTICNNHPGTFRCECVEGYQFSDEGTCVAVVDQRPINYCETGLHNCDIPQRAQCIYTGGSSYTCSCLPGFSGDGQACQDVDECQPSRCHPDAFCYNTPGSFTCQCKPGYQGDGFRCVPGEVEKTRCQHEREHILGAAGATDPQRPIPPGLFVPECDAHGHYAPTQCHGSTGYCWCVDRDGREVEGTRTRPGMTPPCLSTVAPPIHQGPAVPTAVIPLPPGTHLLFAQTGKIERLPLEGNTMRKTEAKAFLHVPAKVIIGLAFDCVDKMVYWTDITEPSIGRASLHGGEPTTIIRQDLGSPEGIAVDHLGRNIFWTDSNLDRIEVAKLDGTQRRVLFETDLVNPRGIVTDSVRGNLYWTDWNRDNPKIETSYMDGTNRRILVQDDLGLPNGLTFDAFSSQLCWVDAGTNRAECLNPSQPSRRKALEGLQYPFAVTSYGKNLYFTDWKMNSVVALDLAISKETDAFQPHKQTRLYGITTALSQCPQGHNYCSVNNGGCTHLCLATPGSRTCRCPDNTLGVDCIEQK
UniProt Q9HCD5: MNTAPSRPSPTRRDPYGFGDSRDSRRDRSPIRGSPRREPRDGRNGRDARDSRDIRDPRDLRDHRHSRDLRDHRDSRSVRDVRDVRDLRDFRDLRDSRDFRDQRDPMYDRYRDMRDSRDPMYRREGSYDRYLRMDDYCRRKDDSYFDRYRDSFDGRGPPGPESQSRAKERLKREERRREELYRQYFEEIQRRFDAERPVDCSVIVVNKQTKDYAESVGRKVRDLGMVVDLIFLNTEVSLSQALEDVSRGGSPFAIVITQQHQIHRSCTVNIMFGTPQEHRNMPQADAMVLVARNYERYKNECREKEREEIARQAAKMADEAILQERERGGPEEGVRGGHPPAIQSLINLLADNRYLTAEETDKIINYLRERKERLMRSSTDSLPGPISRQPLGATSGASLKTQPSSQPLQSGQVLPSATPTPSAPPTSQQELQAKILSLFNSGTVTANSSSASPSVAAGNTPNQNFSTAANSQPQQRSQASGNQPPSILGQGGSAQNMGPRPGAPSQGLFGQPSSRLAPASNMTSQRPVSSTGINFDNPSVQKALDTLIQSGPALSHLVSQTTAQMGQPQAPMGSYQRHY
UniProt Q9NX14, whole entry, looked up: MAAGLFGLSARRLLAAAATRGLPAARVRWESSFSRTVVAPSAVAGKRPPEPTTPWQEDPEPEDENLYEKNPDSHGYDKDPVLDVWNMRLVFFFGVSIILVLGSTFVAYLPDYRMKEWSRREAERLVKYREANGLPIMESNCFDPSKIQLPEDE
UniProt Q12986: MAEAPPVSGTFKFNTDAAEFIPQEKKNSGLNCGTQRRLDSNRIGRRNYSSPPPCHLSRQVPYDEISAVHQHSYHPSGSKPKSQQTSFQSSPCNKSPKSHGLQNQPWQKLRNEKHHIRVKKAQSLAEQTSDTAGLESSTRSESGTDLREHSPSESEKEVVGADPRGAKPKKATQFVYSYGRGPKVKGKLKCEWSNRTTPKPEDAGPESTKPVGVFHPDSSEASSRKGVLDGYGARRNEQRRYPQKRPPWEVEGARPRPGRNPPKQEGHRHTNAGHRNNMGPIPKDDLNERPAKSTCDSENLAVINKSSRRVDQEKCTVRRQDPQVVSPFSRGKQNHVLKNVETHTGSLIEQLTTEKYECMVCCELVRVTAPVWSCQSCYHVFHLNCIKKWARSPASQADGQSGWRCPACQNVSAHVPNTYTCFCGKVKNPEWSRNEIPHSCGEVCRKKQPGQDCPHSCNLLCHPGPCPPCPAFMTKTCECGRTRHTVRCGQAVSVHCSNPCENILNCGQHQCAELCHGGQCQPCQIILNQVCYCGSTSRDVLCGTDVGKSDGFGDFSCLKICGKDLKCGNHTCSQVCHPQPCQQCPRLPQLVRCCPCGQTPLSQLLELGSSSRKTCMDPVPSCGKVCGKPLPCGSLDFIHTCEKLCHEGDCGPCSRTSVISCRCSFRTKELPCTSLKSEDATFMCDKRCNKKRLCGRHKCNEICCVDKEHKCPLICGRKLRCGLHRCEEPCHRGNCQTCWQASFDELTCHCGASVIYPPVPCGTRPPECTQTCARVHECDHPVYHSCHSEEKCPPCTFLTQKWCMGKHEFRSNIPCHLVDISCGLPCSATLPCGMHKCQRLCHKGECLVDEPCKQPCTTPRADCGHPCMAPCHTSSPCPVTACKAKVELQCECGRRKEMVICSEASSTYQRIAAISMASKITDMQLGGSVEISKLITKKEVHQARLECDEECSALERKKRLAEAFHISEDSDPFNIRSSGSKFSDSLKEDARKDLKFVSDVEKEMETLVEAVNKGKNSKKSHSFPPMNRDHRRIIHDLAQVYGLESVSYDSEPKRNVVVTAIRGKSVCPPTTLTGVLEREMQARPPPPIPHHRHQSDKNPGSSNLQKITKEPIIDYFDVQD
UniProt Q8TD19: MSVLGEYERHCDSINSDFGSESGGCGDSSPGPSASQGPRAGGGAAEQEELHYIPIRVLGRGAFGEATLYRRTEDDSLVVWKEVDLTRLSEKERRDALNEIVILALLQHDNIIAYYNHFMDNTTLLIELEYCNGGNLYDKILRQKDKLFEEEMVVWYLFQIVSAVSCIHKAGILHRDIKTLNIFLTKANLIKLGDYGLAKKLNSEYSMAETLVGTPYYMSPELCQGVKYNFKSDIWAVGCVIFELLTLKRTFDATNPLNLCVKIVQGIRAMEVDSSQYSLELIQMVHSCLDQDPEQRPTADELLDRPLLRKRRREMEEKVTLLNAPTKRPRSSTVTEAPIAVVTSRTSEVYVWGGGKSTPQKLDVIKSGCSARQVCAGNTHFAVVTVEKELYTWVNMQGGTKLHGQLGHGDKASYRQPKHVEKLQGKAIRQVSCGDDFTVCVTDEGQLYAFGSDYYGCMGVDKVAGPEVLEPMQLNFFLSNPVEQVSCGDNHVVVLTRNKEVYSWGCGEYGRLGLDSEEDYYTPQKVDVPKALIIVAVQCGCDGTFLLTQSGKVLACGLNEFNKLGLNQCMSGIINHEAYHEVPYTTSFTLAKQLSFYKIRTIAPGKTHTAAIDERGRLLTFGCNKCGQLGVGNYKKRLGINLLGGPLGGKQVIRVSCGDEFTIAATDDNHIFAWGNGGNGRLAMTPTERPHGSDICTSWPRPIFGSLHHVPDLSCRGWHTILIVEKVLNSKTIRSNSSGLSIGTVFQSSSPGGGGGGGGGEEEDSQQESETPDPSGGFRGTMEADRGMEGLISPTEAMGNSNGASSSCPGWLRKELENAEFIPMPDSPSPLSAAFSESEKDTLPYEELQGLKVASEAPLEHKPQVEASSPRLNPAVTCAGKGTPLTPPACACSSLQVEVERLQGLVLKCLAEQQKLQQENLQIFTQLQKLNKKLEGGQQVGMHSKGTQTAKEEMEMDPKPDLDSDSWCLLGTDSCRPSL
UniProt P19838: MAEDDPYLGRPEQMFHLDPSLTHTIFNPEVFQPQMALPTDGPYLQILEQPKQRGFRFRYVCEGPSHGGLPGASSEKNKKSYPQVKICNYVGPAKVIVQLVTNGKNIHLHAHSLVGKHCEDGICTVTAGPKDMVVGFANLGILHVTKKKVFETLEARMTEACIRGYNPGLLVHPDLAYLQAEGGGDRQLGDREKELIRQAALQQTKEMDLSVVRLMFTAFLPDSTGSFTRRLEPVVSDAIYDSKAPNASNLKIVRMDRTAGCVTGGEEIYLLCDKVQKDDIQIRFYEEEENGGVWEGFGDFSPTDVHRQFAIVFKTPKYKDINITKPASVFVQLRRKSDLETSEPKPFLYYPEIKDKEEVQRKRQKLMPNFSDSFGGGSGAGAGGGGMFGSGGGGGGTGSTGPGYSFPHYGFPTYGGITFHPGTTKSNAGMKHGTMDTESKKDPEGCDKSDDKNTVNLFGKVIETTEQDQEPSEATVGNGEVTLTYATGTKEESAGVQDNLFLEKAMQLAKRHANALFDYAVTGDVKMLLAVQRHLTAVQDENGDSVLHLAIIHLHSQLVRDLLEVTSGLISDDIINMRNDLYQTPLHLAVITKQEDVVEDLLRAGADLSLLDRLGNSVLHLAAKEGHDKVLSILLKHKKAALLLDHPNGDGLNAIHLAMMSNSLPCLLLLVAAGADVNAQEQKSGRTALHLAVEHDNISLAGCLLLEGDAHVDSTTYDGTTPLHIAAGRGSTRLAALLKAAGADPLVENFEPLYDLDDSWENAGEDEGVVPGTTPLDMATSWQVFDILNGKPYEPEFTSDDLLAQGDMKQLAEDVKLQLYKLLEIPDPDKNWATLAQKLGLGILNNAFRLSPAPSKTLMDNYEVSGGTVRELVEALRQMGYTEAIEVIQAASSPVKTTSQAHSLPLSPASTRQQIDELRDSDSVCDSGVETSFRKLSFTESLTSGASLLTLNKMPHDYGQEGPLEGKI
UniProt P49821, whole entry, looked up: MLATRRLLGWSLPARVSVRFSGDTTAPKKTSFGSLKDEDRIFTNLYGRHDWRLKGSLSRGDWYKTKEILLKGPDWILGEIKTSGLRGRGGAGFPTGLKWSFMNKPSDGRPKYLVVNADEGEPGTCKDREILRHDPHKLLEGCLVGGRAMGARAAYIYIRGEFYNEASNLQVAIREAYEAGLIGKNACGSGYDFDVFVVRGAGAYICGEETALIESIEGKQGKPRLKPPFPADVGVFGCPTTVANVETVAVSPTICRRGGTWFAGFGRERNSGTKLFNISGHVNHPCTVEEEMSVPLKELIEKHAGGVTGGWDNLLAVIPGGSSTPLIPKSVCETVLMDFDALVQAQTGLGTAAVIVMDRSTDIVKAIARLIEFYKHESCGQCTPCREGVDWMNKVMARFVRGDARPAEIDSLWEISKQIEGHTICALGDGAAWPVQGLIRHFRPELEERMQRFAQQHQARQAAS
UniProt Q8TAT5: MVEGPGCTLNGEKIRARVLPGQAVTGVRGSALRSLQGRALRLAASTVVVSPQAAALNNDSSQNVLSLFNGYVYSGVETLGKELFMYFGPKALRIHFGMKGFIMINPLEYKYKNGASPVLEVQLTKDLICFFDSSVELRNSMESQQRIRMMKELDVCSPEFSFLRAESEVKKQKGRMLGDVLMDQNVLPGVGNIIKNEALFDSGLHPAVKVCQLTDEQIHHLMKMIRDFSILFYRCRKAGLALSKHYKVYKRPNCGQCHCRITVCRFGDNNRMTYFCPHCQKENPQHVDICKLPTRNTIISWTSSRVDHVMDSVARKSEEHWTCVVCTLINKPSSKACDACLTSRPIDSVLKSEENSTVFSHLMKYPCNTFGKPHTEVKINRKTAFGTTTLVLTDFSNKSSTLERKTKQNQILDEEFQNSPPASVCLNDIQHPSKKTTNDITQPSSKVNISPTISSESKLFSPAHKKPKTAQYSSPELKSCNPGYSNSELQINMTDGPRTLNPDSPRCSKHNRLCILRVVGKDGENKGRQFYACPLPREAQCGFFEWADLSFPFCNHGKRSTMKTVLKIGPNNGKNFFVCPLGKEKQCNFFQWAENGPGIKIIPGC
UniProt O75323: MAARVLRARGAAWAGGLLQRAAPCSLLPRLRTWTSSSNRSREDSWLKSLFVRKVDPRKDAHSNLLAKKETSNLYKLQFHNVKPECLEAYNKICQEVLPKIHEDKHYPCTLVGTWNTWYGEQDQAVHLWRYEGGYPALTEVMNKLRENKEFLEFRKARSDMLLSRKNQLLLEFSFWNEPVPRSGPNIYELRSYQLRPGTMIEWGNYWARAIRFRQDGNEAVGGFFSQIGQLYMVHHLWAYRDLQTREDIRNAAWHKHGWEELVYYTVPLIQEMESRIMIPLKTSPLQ
UniProt Q16718, whole entry, looked up: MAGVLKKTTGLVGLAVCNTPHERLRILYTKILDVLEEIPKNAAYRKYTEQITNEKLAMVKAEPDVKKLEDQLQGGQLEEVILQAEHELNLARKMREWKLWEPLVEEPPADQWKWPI

The other results are listed elsewhere or left out.

Compound in this assay: CC1Cc2ccccc2N1C(=O)C1CCCN(C1)C(=O)CCl (mixture of isomers) [TRIM25 ligand 11 (diastereomer mixture)]
Put plainly: probe-labelled cysteine peptide fold change vs DMSO (competition) (log2 fold change); higher = less target engagement (more negative = stronger competition). The settings on record: THP-1, incubation time: 4 h.
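Further: competitive chemoproteomic profiling in live THP-1 cells with an iodoacetamide desthiobiotin (IA-DTB) probe, comparing probe-labelled peptide intensities in compound-treated cells against DMSO-treated controls.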

Take “NID1_P14543_403_HQCSVHAECR (UniProt P14543)”: the “probe-labelled cysteine peptide fold change” value is -0.00392 (10 µM) and 0.0411 (50 µM).

Take “NCOA5_Q9HCD5_301_YKNECR (UniProt Q9HCD5)”: the “probe-labelled cysteine peptide fold change” value reads like this: (10 µM) -0.174; (50 µM) -0.0836.

On to “NDUFB11_Q9NX14_141_EANGLPIMESNCFDPSK (UniProt Q9NX14)”, for which the “probe-labelled cysteine peptide fold change” value was -0.025 (10 µM) and -0.175 (50 µM).

As to “NFX1_Q12986_778_VHECDHPVYHSCHSEEK (UniProt Q12986)”, the “probe-labelled cysteine peptide fold change” value is 0.0918 (10 µM) and -0.0905 (50 µM).

For “NDRG2_Q9UN36_274_CPVMLVVGDQAPHEDAVVECNSK (UniProt Q9UN36)”, the “probe-labelled cysteine peptide fold change” value runs as follows: (10 µM) 0.0756; (50 µM) -0.0733.

As for “NFX1_Q12986_947+951_LECDEECSALER (UniProt Q12986)”, the “probe-labelled cysteine peptide fold change” value (10 µM) was determined as 0.0793 and the “probe-labelled cysteine peptide fold change” value (50 µM) is -0.0501.

As for “NF1_P21359_1016_LCQLVEVMMAR (UniProt P21359)”, the “probe-labelled cysteine peptide fold change” value was 0.0549 (10 µM) and 0.181 (50 µM).

With “NFATC2_Q13469_355_HIYPAVEFLGPCEQGER (UniProt Q13469)”, the “probe-labelled cysteine peptide fold change” value is, setting by setting: (10 µM) -0.239; (50 µM) -0.213.

For “NEK9_Q8TD19_715_PIFGSLHHVPDLSCR (UniProt Q8TD19)”, the “probe-labelled cysteine peptide fold change” value was 0.134 (10 µM) and -0.0999 (50 µM).

For the target “NFKB1_P19838_87_ICNYVGPAK (UniProt P19838)”, the “probe-labelled cysteine peptide fold change” value was -0.0138 (10 µM) and 0.173 (50 µM).

In the case of “NEK9_Q8TD19_696_LAMTPTERPHGSDICTSWPR (UniProt Q8TD19)”, the “probe-labelled cysteine peptide fold change” value is, setting by setting: (10 µM) 0.251; (50 µM) -0.0437.

Regarding “NFX1_Q12986_901_EMVICSEASSTYQR (UniProt Q12986)”, the “probe-labelled cysteine peptide fold change” value is 0.177 (10 µM) and -0.0388 (50 µM).

In the case of NFX1_Q12986_479_TCECGR (UniProt Q12986), the “probe-labelled cysteine peptide fold change” value reads like this: (10 µM) -0.0168; (50 µM) 0.212.

For the target “NFX1_Q12986_852_GECLVDEPCK (UniProt Q12986)”, the “probe-labelled cysteine peptide fold change” value was -0.0963 (10 µM) and 0.0315 (50 µM).

With NCLN_Q969V3_84_RCVLMR (UniProt Q969V3), the “probe-labelled cysteine peptide fold change” value was -0.0469 (10 µM) and -0.0231 (50 µM).

On to “NDUFA8_P51970_88_HCAEPFTEYWTCIDYTGQQLFR (UniProt P51970)”, for which the “probe-labelled cysteine peptide fold change” value is 0.0824 (10 µM) and 0.245 (50 µM).

Consider “NDUFV1_P49821_382_HESCGQCTPCR (UniProt P49821)”, for which the “probe-labelled cysteine peptide fold change” value is 0.251 (10 µM) and -0.135 (50 µM).

As to “NEIL3_Q8TAT5_259_RPNCGQCHCR (UniProt Q8TAT5)”, the “probe-labelled cysteine peptide fold change” value is 0.0358 (10 µM) and 0.0612 (50 µM).

As to “NIPSNAP2_O75323_108_HYPCTLVGTWNTWYGEQDQAVHLWR (UniProt O75323)”, the “probe-labelled cysteine peptide fold change” value runs as follows: (10 µM) 0.25; (50 µM) 0.102.

For “NCK1_P16333_340_ETVYCIGQR (UniProt P16333)”, the “probe-labelled cysteine peptide fold change” value by setting is: (10 µM) 0.0423; (50 µM) 0.105.

For “NF1_P21359_1486_RFFLDIASDCPTSDAVNHSLSFISDGNVLALHR (UniProt P21359)”, the “probe-labelled cysteine peptide fold change” value by setting is: (10 µM) -0.0766; (50 µM) -0.145.

For “NHP2_Q9NX24_18_ADPDGPEAQAEACSGER (UniProt Q9NX24)”, the “probe-labelled cysteine peptide fold change” value runs as follows: (10 µM) -0.227; (50 µM) -0.308.

As to “NEK7_Q8TDX7_53_AACLLDGVPVALKK (UniProt Q8TDX7)”, the “probe-labelled cysteine peptide fold change” value was -0.172 (10 µM) and -0.116 (50 µM).

On to “NIN_Q8N4C6_1502_AMMHDLQITCSEMQQK (UniProt Q8N4C6)”, for which the “probe-labelled cysteine peptide fold change” value was -0.0439 (10 µM) and 0.0661 (50 µM).

As to “NDUFA5_Q16718_17_TTGLVGLAVCNTPHER (UniProt Q16718)”, the “probe-labelled cysteine peptide fold change” value was -0.202 (10 µM) and -0.304 (50 µM).

For “NGLY1_Q96IV0_286_EVEDHYCDACQFSNR (UniProt Q96IV0)”, the “probe-labelled cysteine peptide fold change” value reads like this: (10 µM) 0.0504; (50 µM) 0.167.
